Results on six substances are retold here after publication doi:10.1101/2025.06.16.659888.

Protein sequences, listed by entry. Tags and fused reporters are not part of them. Lines headed by an entry give the natural chain unless they say otherwise; changes in a name come on top.
UniProt P25439: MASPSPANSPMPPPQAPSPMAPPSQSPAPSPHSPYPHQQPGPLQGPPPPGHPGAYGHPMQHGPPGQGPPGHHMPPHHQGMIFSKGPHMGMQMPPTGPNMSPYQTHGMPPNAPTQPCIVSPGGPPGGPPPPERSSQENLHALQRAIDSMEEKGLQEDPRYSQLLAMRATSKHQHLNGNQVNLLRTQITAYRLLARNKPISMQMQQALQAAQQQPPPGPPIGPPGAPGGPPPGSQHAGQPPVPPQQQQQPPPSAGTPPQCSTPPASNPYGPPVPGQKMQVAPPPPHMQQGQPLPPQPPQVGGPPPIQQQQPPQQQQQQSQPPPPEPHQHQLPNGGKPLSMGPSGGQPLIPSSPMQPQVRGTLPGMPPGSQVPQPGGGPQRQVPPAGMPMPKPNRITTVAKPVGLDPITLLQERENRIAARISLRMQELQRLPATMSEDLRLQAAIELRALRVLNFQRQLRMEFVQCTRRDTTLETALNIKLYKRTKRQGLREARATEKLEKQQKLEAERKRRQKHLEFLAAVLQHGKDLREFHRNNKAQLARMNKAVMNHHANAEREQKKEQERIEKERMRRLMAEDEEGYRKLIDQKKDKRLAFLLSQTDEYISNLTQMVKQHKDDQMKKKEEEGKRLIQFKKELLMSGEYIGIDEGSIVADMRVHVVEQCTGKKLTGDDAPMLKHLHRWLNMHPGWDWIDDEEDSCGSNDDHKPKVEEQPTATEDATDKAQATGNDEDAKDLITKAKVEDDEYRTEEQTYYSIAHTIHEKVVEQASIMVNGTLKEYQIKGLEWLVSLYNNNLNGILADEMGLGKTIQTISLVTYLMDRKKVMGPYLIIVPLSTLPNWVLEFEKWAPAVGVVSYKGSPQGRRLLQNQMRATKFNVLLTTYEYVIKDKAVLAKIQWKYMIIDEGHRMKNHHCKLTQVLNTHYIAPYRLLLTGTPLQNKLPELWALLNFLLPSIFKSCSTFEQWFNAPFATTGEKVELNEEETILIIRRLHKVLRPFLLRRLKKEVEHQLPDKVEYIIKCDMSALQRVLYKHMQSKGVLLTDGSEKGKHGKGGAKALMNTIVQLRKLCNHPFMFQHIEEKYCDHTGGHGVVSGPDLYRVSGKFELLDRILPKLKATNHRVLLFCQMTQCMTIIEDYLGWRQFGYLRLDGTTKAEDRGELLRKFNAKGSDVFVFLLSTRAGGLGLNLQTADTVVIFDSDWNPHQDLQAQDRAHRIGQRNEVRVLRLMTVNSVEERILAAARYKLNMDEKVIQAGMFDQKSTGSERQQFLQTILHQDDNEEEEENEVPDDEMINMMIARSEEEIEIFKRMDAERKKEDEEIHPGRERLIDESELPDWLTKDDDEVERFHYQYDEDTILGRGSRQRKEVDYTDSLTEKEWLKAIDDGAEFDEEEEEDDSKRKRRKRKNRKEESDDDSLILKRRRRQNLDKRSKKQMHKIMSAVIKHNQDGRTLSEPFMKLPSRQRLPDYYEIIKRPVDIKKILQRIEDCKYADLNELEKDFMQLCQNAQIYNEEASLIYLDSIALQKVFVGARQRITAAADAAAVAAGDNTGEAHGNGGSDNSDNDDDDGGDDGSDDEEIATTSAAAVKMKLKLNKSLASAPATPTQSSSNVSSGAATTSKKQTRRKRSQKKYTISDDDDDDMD
UniProt P28159: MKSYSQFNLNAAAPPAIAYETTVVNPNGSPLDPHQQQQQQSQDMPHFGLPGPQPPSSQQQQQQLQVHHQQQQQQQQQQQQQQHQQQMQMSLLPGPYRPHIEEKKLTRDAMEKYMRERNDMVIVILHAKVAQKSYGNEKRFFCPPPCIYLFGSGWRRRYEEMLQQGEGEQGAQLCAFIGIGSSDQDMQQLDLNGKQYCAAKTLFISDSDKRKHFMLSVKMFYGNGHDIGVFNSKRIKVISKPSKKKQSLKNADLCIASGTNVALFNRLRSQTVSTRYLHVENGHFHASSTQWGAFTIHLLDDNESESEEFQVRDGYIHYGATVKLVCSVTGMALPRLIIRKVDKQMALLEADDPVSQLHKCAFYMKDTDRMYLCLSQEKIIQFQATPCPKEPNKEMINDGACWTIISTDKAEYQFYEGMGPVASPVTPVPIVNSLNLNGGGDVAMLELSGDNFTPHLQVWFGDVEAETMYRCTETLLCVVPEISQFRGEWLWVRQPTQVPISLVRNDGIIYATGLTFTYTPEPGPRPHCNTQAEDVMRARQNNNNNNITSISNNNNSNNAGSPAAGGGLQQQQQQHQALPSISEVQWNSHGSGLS
UniProt Q9W321: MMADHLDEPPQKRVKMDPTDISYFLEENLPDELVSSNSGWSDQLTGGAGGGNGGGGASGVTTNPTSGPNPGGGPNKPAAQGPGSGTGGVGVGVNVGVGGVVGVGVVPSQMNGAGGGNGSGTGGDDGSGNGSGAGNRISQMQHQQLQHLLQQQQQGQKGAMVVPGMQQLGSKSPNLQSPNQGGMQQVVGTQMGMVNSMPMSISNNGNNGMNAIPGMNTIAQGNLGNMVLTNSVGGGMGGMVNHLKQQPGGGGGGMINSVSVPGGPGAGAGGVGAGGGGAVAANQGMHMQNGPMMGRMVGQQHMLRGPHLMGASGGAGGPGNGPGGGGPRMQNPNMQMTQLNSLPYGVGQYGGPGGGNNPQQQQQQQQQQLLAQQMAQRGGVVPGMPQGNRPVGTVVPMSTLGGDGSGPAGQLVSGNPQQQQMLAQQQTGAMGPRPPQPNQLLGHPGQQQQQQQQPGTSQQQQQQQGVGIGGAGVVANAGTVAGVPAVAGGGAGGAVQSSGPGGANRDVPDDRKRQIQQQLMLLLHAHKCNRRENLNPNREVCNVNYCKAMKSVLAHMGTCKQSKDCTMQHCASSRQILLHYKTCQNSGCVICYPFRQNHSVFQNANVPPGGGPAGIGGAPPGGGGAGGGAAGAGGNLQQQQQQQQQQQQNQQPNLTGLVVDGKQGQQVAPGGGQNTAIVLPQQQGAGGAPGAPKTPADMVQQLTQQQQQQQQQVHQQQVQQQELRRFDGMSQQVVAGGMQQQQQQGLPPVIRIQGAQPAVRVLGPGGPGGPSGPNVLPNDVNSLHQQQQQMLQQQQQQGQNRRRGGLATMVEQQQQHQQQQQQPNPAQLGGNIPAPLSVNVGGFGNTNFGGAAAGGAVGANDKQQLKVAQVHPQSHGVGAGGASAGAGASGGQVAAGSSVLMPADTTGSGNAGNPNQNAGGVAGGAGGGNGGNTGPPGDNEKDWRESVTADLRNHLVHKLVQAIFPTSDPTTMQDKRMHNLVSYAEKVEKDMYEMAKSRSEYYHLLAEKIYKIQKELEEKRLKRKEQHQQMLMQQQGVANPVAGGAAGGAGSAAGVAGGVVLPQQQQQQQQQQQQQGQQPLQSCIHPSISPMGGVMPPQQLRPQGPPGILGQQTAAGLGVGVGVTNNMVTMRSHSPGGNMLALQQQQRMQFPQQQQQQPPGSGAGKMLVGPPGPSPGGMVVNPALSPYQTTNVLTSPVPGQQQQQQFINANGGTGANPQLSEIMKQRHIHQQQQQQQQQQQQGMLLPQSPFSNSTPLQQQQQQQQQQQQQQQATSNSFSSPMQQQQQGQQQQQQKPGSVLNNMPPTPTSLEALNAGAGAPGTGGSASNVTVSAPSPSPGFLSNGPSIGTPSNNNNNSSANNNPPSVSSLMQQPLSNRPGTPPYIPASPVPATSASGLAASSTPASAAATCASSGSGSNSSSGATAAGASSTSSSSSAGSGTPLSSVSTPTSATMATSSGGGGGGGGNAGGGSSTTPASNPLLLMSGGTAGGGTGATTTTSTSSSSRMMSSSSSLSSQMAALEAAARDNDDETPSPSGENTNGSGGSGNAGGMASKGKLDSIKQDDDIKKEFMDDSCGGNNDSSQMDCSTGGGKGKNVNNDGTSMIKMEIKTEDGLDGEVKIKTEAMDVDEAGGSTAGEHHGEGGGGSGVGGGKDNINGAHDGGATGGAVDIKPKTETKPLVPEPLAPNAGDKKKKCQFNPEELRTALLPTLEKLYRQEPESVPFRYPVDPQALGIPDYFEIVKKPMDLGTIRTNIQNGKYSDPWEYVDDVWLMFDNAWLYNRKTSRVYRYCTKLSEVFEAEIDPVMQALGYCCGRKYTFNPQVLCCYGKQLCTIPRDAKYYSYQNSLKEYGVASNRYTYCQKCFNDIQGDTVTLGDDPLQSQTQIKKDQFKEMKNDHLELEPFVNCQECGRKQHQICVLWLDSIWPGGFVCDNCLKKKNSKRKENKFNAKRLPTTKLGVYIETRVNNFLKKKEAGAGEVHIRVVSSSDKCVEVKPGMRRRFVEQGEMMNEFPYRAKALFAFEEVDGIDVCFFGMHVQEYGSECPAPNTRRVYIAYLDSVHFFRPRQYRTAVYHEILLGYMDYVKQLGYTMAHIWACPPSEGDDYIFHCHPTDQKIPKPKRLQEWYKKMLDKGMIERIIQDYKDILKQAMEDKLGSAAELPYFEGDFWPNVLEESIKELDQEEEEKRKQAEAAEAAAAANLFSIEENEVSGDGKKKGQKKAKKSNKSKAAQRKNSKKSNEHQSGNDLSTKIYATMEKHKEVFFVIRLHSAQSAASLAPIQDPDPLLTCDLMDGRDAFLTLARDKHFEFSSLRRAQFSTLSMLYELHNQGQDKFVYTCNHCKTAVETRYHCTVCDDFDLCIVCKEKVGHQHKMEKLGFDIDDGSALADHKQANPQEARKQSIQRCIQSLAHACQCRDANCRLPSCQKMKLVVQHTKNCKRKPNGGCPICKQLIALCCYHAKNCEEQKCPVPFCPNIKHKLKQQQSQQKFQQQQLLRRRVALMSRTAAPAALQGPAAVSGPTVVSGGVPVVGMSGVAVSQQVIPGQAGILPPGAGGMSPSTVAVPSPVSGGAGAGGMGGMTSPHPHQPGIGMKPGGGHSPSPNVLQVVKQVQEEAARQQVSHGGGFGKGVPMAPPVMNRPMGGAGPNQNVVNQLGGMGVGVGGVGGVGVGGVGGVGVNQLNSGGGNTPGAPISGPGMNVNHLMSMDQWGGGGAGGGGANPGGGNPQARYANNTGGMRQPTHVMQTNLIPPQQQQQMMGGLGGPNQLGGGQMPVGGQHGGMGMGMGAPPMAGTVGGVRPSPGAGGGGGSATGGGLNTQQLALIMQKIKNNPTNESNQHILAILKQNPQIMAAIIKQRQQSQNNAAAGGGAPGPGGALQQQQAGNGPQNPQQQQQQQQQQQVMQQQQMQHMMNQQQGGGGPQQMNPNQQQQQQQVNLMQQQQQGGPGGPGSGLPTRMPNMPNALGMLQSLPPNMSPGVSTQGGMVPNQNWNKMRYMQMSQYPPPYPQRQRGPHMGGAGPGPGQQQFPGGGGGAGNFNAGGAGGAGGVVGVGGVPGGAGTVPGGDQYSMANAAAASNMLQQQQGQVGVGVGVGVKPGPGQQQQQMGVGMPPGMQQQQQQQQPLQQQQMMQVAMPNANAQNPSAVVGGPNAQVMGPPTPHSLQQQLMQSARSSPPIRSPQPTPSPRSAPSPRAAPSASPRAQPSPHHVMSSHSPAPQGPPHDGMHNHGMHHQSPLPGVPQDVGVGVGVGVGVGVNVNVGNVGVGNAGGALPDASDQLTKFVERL

No constants are given. Whether binding was seen depends on the method and setting. Binding seen in cells or lysates may run through a third protein. Some binding calls cover weakened binding; strength is not graded here.

One assay deals with SWI-SNF ATPase Brahma (Brm) (Drosophila (endogenous in whole larvae)) (UniProt P25439). As to the kind of experiment: co-IP.
As to “Suppressor of Hairless, Su(H) (from UniProt P28159 1-594)”, the binding result is given as “binds”.

As for “Drosophila CBP/p300 (Nejire, Nej) (from UniProt Q9W321 1-3276)”, the binding entry is on record as “binds”.

As to “Mastermind (Mam) (from UniProt P21519 1-1594)”, the binding result is “binds”.

A further assay concerns the target GST-tagged Suppressor of Hairless, Su(H), full length (Drosophila) (UniProt P28159). As to the kind of experiment: pull-down.
On to “His-Brm F3 (748-1638aa) (from UniProt P25439 748-1638) (domain or fragment)”, for which the binding entry was “no binding”.

Regarding “His-Brm F2 (304-747aa) (from UniProt P25439 304-747) (domain or fragment)”, the binding entry is “binds”.

Regarding “6X His-Brm F1 (1-311aa) (from UniProt P25439 1-311) (domain or fragment)”, the binding result is reported as “no binding”.
